Assay results published in article PMC9986639.
No constants are given. Whether binding was seen depends on the method and setting. For some of these results: In cells and extracts the contact can be indirect. Some binding calls cover weakened binding; strength is not graded here. For some of these results: Tags and fused reporters may be left off the sequences shown.

T1: TXN1-6×His (thioredoxin 1) (UniProt P10599)
T1 sequence: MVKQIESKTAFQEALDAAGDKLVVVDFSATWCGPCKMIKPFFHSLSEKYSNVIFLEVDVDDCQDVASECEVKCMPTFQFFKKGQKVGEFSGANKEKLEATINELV


Experiments:
[1] = target: Trx1* (N-terminal 6×His Trx1 K4R K19R) (E. coli) [thioredoxin: P0AA25]; test: cross-linking; live E. coli expressing Trx1* treated with BVSB or PDES; Ni-NTA, Lys-C, second Ni-NTA step, on-beads Glu-C; cross-linked peptides identified by LC-MS/MS (pLink2); results of both cross-linkers combined
[2] = target: Trx1-6×His (thioredoxin 1) (E. coli) [thioredoxin: P0AA25]; test: cross-linking; in vitro: 10 μM Trx1 and 10 μM Tpx or PAPR in Hepes buffer pH 8.0, 0.5 mM BVSB or PDES, RT, 4 h, stopped with 100 mM DTT; Western blot and MS of cross-linked peptides (trypsin and Glu-C); both purified
[3] = target: Trx1-6×His (thioredoxin 1) (E. coli) [thioredoxin: P0AA25]; test: cross-linking; live E. coli BL21(DE3) co-expressing His-tagged Trx1 and the Flag-tagged partner; BVSB or PDES (2.5 mM, 1 h at 4°C and 2 h at RT, in PBS); Western blot under denaturing conditions (anti-His, anti-Flag) and MS of cross-linked peptides
[4] = target: T1, TXN1-6×His (thioredoxin 1); test: cross-linking; live HEK293T cells transfected with the His-tagged bait, 0.5 mM BVSB or PDES (1 h at 4°C and 2 h at RT, in PBS); lysis in 8 M urea, Ni-NTA, trypsin, SCX fractions; cross-linked peptides identified by LC-MS/MS (pLink2)

| binding [1] | Binder | other results |
| --- | --- | --- |
| binds | DAPDC (enzyme, UniProt P00861 1-420) MPHSLFSTDTDLTAENLLRLPAEFGCPVWVYDAQIIRRQIAALKQFDVVRFAQKACSNIHILRLMREQGVKVDSVSLGEIERALAAGYNPQTHPDDIVFTADVIDQATLERVSELQIPVNAGSVDMLDQLGQVSPGHRVWLRVNPGFGHGHSQKTNTGGENSKHGIWYTDLPAALDVIQRHHLQLVGIHMHIGSGVDYAHLEQVCGAMVRQVIEFGQDLQAISAGGGLSVPYQQGEEAVDTEHYYGLWNAAREQIARHLGHPVKLEIEPGRFLVAQSGVLITQVRSVKQMGSRHFVLVDAGFNDLMRPAMYGSYHHISALAADGRSLEHAPTVETVVAGPLCESGDVFTQQEGGNVETRALPEVKAGDYLVLHDTGAYGASMSSNYNSRPLLPEVLFDNGQARLIRRRQTIEELLALELL |  |
|  | PAPR-Flag-6×His (3'-phosphoadenosine 5'-phosphosulfate reductase) (enzyme, UniProt P17854 1-244) MSKLDLNALNELPKVDRILALAETNAELEKLDAEGRVAWALDNLPGEYVLSSSFGIQAAVSLHLVNQIRPDIPVILTDTGYLFPETYRFIDELTDKLKLNLKVYRATESAAWQEARYGKLWEQGVEGIEKYNDINKVEPMNRALKELNAQTWFAGLRREQSGSRANLPVLAIQRGVFKVLPIIDWDNRTIYQYLQKHGLKYHPLWDEGYLSVGDTHTTRKWEPGMAEEETRFFGLKRECGLHEG | binding [2]: binds weakly |
|  | PAPR-Flag (co-expressed with Trx1-6×His) (enzyme, UniProt P17854 1-244) MSKLDLNALNELPKVDRILALAETNAELEKLDAEGRVAWALDNLPGEYVLSSSFGIQAAVSLHLVNQIRPDIPVILTDTGYLFPETYRFIDELTDKLKLNLKVYRATESAAWQEARYGKLWEQGVEGIEKYNDINKVEPMNRALKELNAQTWFAGLRREQSGSRANLPVLAIQRGVFKVLPIIDWDNRTIYQYLQKHGLKYHPLWDEGYLSVGDTHTTRKWEPGMAEEETRFFGLKRECGLHEG | binding [3]: binds |
|  | Tpx-Flag (co-expressed with Trx1-6×His) (enzyme, UniProt P0A862 1-168) MSQTVHFQGNPVTVANSIPQAGSKAQTFTLVAKDLSDVTLGQFAGKRKVLNIFPSIDTGVCAASVRKFNQLATEIDNTVVLCISADLPFAQSRFCGAEGLNNVITLSTFRNAEFLQAYGVAIADGPLKGLAARAVVVIDENDNVIFSQLVDEITTEPDYEAALAVLKA | binding [3]: binds |
| binds | FabH (enzyme, UniProt P0A6R0 1-317) MYTKIIGTGSYLPEQVRTNADLEKMVDTSDEWIVTRTGIRERHIAAPNETVSTMGFEAATRAIEMAGIEKDQIGLIVVATTSATHAFPSAACQIQSMLGIKGCPAFDVAAACAGFTYALSVADQYVKSGAVKYALVVGSDVLARTCDPTDRGTIIIFGDGAGAAVLAASEEPGIISTHLHADGSYGELLTLPNADRVNPENSIHLTMAGNEVFKVAVTELAHIVDETLAANNLDRSQLDWLVPHQANLRIISATAKKLGMSMDNVVVTLDRHGNTSAASVPCALDEAVRDGRIKPGQLVLLEAFGGGFTWGSALVRF |  |
| binds | PpsA (enzyme, UniProt P23538 1-792) MSNNGSSPLVLWYNQLGMNDVDRVGGKNASLGEMITNLSGMGVSVPNGFATTADAFNQFLDQSGVNQRIYELLDKTDIDDVTQLAKAGAQIRQWIIDTPFQPELENAIREAYAQLSADDENASFAVRSSATAEDMPDASFAGQQETFLNVQGFDAVLVAVKHVFASLFNDRAISYRVHQGYDHRGVALSAGVQRMVRSDLASSGVMFSIDTESGFDQVVFITSAWGLGEMVVQGAVNPDEFYVHKPTLAANRPAIVRRTMGSKKIRMVYAPTQEHGKQVKIEDVPQEQRDIFSLTNEEVQELAKQAVQIEKHYGRPMDIEWAKDGHTGKLFIVQARPETVRSRGQVMERYTLHSQGKIIAEGRAIGHRIGAGPVKVIHDISEMNRIEPGDVLVTDMTDPDWEPIMKKASAIVTNRGGRTCHAAIIARELGIPAVVGCGDATERMKDGENVTVSCAEGDTGYVYAELLEFSVKSSSVETMPDLPLKVMMNVGNPDRAFDFACLPNEGVGLARLEFIINRMIGVHPRALLEFDDQEPQLQNEIREMMKGFDSPREFYVGRLTEGIATLGAAFYPKRVIVRLSDFKSNEYANLVGGERYEPDEENPMLGFRGAGRYVSDSFRDCFALECEAVKRVRNDMGLTNVEIMIPFVRTVDQAKAVVEELARQGLKRGENGLKIIMMCEIPSNALLAEQFLEYFDGFSIGSNDMTQLALGLDRDSGVVSELFDERNDAVKALLSMAIRAAKKQGKYVGICGQGPSDHEDFAAWLMEEGIDSLSLNPDTVVQTWLSLAELKK |  |
| binds | GatD (enzyme, UniProt P0A9S3 1-346) MKSVVNDTDGIVRVAESVIPEIKHQDEVRVKIASSGLCGSDLPRIFKNGAHYYPITLGHEFSGYIDAVGSGVDDLHPGDAVACVPLLPCFTCPECLKGFYSQCAKYDFIGSRRDGGFAEYIVVKRKNVFALPTDMPIEDGAFIEPITVGLHAFHLAQGCENKNVIIIGAGTIGLLAIQCAVALGAKSVTAIDISSEKLALAKSFGAMQTFNSSEMSAPQMQSVLRELRFNQLILETAGVPQTVELAVEIAGPHAQLALVGTLHQDLHLTSATFGKILRKELTVIGSWMNYSSPWPGQEWETASRLLTERKLSLEPLIAHRGSFESFAQAVRDIARNAMPGKVLLIP |  |
|  | Thioredoxin Reductase 1 (TXNRD1) (enzyme, UniProt Q16881 1-649, selenocysteine at 648 (Sec648)) MGCAEGKAVAAAAPTELQTKGKNGDGRRRSAKDHHPGKTLPENPAGFTSTATADSRALLQAYIDGHSVVIFSRSTCTRCTEVKKLFKSLCVPYFVLELDQTEDGRALEGTLSELAAETDLPVVFVKQRKIGGHGPTLKAYQEGRLQKLLKMNGPEDLPKSYDYDLIIIGGGSGGLAAAKEAAQYGKKVMVLDFVTPTPLGTRWGLGGTCVNVGCIPKKLMHQAALLGQALQDSRNYGWKVEETVKHDWDRMIEAVQNHIGSLNWGYRVALREKKVVYENAYGQFIGPHRIKATNNKGKEKIYSAERFLIATGERPRYLGIPGDKEYCISSDDLFSLPYCPGKTLVVGASYVALECAGFLAGIGLDVTVMVRSILLRGFDQDMANKIGEHMEEHGIKFIRQFVPIKVEQIEAGTPGRLRVVAQSTNSEEIIEGEYNTVMLAIGRDACTRKIGLETVGVKINEKTGKIPVTDEEQTNVPYIYAIGDILEDKVELTPVAIQAGRLLAQRLYAGSTVKCDYENVPTTVFTPLEYGACGLSEEKAVEKFGEENIEVYHSYFWPLEWTIPSRDNNKCYAKIICNTKDNERVVGFHVLGPNAGEVTQGFAAALKCGLTKKQLDSTIGIHPVCAEVFTTLSVTKRSGASILQAGCUG | binding [4]: binds |
| binds | AceA (enzyme, UniProt P0A9G6 1-434) MKTRTQQIEELQKEWTQPRWEGITRPYSAEDVVKLRGSVNPECTLAQLGAAKMWRLLHGESKKGYINSLGALTGGQALQQAKAGIEAVYLSGWQVAADANLAASMYPDQSLYPANSVPAVVERINNTFRRADQIQWSAGIEPGDPRYVDYFLPIVADAEAGFGGVLNAFELMKAMIEAGAAAVHFEDQLASVKKCGHMGGKVLVPTQEAIQKLVAARLAADVTGVPTLLVARTDADAADLITSDCDPYDSEFITGERTSEGFFRTHAGIEQAISRGLAYAPYADLVWCETSTPDLELARRFAQAIHAKYPGKLLAYNCSPSFNWQKNLDDKTIASFQQQLSDMGYKFQFITLAGIHSMWFNMFDLANAYAQGEGMKHYVEKVQQPEFAAAKDGYTFVSHQQEVGTGYFDKVTTIIQGGTSSVTALTGSTEESQF |  |
| binds | FabB (enzyme, UniProt P0A953 1-406) MKRAVITGLGIVSSIGNNQQEVLASLREGRSGITFSQELKDSGMRSHVWGNVKLDTTGLIDRKVVRFMSDASIYAFLSMEQAIADAGLSPEAYQNNPRVGLIAGSGGGSPRFQVFGADAMRGPRGLKAVGPYVVTKAMASGVSACLATPFKIHGVNYSISSACATSAHCIGNAVEQIQLGKQDIVFAGGGEELCWEMACEFDAMGALSTKYNDTPEKASRTYDAHRDGFVIAGGGGMVVVEELEHALARGAHIYAEIVGYGATSDGADMVAPSGEGAVRCMKMAMHGVDTPIDYLNSHGTSTPVGDVKELAAIREVFGDKSPAISATKAMTGHSLGAAGVQEAIYSLLMLEHGFIAPSINIEELDEQAAGLNIVTETTDRELTTVMSNSFGFGGTNATLVMRKLKD |  |
